Settings: clear polyethylene bag, optionally in black polyethylene bag with silica gel, sealed triple laminated bag, HDPE drum; over a period of 60 days

COc1cc2c(cc1OC)C(=O)C(CC1CCN(Cc3ccccc3)CC1)C2.Cl (racemic) [donepezil hydrochloride form I, (±)-2,3-dihydro-5,6-dimethoxy-2-[[1-(phenylmethyl)-4-piperidinyl]methyl]-1H-inden-1-one hydrochloride]
change to the donepezil hydrochloride on storage: no significant change

Source: patent publication US20080114173A1 (priority 2004, published 2008)
